No constants are given. Whether binding was seen depends on the method and setting. Some binding calls cover weakened binding; strength is not graded here.

The record followed here is US20240262919A1 (SHANGHAITECH UNIVERSITY, published 2024).

In this assay the target is T1, antigen of the affinity maturation selections of antibody 3131 (IL-18Rβ, construct not named) (UniProt O95256).
T1 sequence (looked up): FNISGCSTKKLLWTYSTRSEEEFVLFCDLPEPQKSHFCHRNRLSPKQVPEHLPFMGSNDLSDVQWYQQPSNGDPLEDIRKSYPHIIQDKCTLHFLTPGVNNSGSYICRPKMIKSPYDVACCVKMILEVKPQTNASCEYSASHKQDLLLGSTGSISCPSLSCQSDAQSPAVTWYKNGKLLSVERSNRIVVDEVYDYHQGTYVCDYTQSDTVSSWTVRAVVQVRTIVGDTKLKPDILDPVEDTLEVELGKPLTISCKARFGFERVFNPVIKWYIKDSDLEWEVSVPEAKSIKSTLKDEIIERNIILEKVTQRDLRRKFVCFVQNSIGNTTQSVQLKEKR
The assay is described as follows: affinity-based solution-phase phage display selection, decreasing antigen concentration.

B1: 3131 AM2-O-06 (Fab, V domains shown)
VH: EVQLVESGGGLVQPGGSLRLSCAASGFSLYYSSMHWVRQAPGKGLEWVASIYSSSGDTHYADSVKGRFTISADTSKNTAYLQMNSLRAEDTAVYYCARSSFSHGYGWYGLDYWGQGTLVTVSS
VL: DIQMTQSPSSLSASVGDRVTITCRASQSVSSAVAWYQQKPGKAPRLLIYSASSLYSGVPSRFSGSRSGTDFTLTISSLQPEDFATYYCQQYGYHYAGLITFGQGTKVEIK
For B1, the binding result was “binds”.

B2: 3131 AM2-O-10 (Fab, V domains shown)
VH: EVQLVESGGGLVQPGGSLRLSCAASGFSLYYSSMHWVRQAPGKGLEWVASIYSSGGSTSYADSVKGRFTISADTSKNTAYLQMNSLRAEDTAVYYCARSSFSHGYGWYGLDYWGQGTLVTVSS
VL: DIQMTQSPSSLSASVGDRVTITCRASQSVSSAVAWYQQKPGKAPRLLIYGASSLYSGVPSRFSGSRSGTDFTLTISSLQPEDFATYYCQQYGYHYAGLITFGQGTKVEIK
Regarding B2, the binding entry is “binds”.

B3: 3131 AM2-O-21 (Fab, V domains shown)
VH: EVQLVESGGGLVQPGGSLRLSCAASGFDLYYSSMHWVRQAPGKGLEWVASIYSSSGDTHYADSVKGRFTISADTSKNTAYLQMNSLRAEDTAVYYCARSSFSHGYGWYGLDYWGQGTLVTVSS
VL: DIQMTQSPSSLSASVGDRVTITCRASQSVSSAVAWYQQKPGKAPRLLIYSASSLYSGVPSRFSGSRSGTDFTLTISSLQPEDFATYYCQQYGYHDAGLITFGQGTKVEIK
With B3, the binding entry is “binds”.

B4: 3131 AM2-O-24 (Fab, V domains shown)
VH: EVQLVESGGGLVQPGGSLRLSCAASGFTLYYSSMHWVRQAPGKGLEWVASIYSSGGSTSYADSVKGRFTISADTSKNTAYLQMNSLRAEDTAVYYCARSSFSHGYGWYGLDYWGQGTLVTVSS
VL: DIQMTQSPSSLSASVGDRVTITCRASQSVSSAVAWYQQKPGKAPRLLIYGASSLYSGVPSRFSGSRSGTDFTLTISSLQPEDFATYYCQQYGYHDAGLITFGQGTKVEIK
Consider B4, for which the binding entry is “binds”.

B5: 3131 AM2-O-25 (Fab, V domains shown)
VH: EVQLVESGGGLVQPGGSLRLSCAASGFDLYYSSMHWVRQAPGKGLEWVASIYSSGGSTSYADSVKGRFTISADTSKNTAYLQMNSLRAEDTAVYYCARSSFSHGYGWYGLDYWGQGTLVTVSS
VL: DIQMTQSPSSLSASVGDRVTITCRASQSVSSAVAWYQQKPGKAPRLLIYGASSLYSGVPSRFSGSRSGTDFTLTISSLQPEDFATYYCQQYGYHDAGLITFGQGTKVEIK
As to B5, the binding entry was “binds”.

B6: 3131 AM2-O-16 (Fab, V domains shown)
VH: EVQLVESGGGLVQPGGSLRLSCAASGFTLYYSSMHWVRQAPGKGLEWVASIYSSGGSTSYADSVKGRFTISADTSKNTAYLQMNSLRAEDTAVYYCARSSFSHGYGWYGLDYWGQGTLVTVSS
VL: DIQMTQSPSSLSASVGDRVTITCRASQSVSSAVAWYQQKPGKAPRLLIYSASSLYSGVPSRFSGSRSGTDFTLTISSLQPEDFATYYCQQYGYHDAGLITFGQGTKVEIK
As to B6, the binding entry is reported as “binds”.

B7: 3131 AM2-O-09 (Fab, V domains shown)
VH: EVQLVESGGGLVQPGGSLRLSCAASGFDLYYSSMHWVRQAPGKGLEWVASIYSSGGSTSYADSVKGRFTISADTSKNTAYLQMNSLRAEDTAVYYCARSSFSHGYGWYGLDYWGQGTLVTVSS
VL: DIQMTQSPSSLSASVGDRVTITCRASQSVSSAVAWYQQKPGKAPRLLIYGASSLYSGVPSRFSGSRSGTDFTLTISSLQPEDFATYYCQQYGYHYAGLITFGQGTKVEIK
In the case of B7, the binding entry was “binds”.

B8: 3131 AM2-O-18 (Fab, V domains shown)
VH: EVQLVESGGGLVQPGGSLRLSCAASGFSLYYSSMHWVRQAPGKGLEWVASIYSSGGSTSYADSVKGRFTISADTSKNTAYLQMNSLRAEDTAVYYCARSSFSHGYGWYGLDYWGQGTLVTVSS
VL: DIQMTQSPSSLSASVGDRVTITCRASQSVSSAVAWYQQKPGKAPRLLIYSASSLYSGVPSRFSGSRSGTDFTLTISSLQPEDFATYYCQQYGYHDAGLITFGQGTKVEIK
For B8, the binding entry is recorded as “binds”.

B9: 3131 AM2-O-07 (Fab, V domains shown)
VH: EVQLVESGGGLVQPGGSLRLSCAASGFNLYYSSMHWVRQAPGKGLEWVASIYSSGGSTSYADSVKGRFTISADTSKNTAYLQMNSLRAEDTAVYYCARSSFSHGYGWYGLDYWGQGTLVTVSS
VL: DIQMTQSPSSLSASVGDRVTITCRASQSVSSAVAWYQQKPGKAPRLLIYGASSLYSGVPSRFSGSRSGTDFTLTISSLQPEDFATYYCQQYGYHYAGLITFGQGTKVEIK
Consider B9, for which the binding result is “binds”.

B10: 3131 AM2-O-17 (Fab, V domains shown)
VH: EVQLVESGGGLVQPGGSLRLSCAASGFDLYYSSMHWVRQAPGKGLEWVASIYSSGGSTSYADSVKGRFTISADTSKNTAYLQMNSLRAEDTAVYYCARSSFSHGYGWYGLDYWGQGTLVTVSS
VL: DIQMTQSPSSLSASVGDRVTITCRASQSVSSAVAWYQQKPGKAPRLLIYSASSLYSGVPSRFSGSRSGTDFTLTISSLQPEDFATYYCQQYGYHDAGLITFGQGTKVEIK
In the case of B10, the binding entry is listed as “binds”.

B11: 3131 AM2-O-12 (Fab, V domains shown)
VH: EVQLVESGGGLVQPGGSLRLSCAASGFTLYYSSMHWVRQAPGKGLEWVASIYSSSGDTHYADSVKGRFTISADTSKNTAYLQMNSLRAEDTAVYYCARSSFSHGYGWYGLDYWGQGTLVTVSS
VL: DIQMTQSPSSLSASVGDRVTITCRASQSVSSAVAWYQQKPGKAPRLLIYGASSLYSGVPSRFSGSRSGTDFTLTISSLQPEDFATYYCQQYGYHYAGLITFGQGTKVEIK
Turning to B11, the binding result is “binds”.

B12: 3131 AM2-O-11 (Fab, V domains shown)
VH: EVQLVESGGGLVQPGGSLRLSCAASGFNLYYSSMHWVRQAPGKGLEWVASIYSSSGDTHYADSVKGRFTISADTSKNTAYLQMNSLRAEDTAVYYCARSSFSHGYGWYGLDYWGQGTLVTVSS
VL: DIQMTQSPSSLSASVGDRVTITCRASQSVSSAVAWYQQKPGKAPRLLIYGASSLYSGVPSRFSGSRSGTDFTLTISSLQPEDFATYYCQQYGYHYAGLITFGQGTKVEIK
Consider B12, for which the binding entry is reported as “binds”.

B13: 3131 AM2-O-15 (Fab, V domains shown)
VH: EVQLVESGGGLVQPGGSLRLSCAASGFNLYYSSMHWVRQAPGKGLEWVASIYSSGGSTSYADSVKGRFTISADTSKNTAYLQMNSLRAEDTAVYYCARSSFSHGYGWYGLDYWGQGTLVTVSS
VL: DIQMTQSPSSLSASVGDRVTITCRASQSVSSAVAWYQQKPGKAPRLLIYSASSLYSGVPSRFSGSRSGTDFTLTISSLQPEDFATYYCQQYGYHDAGLITFGQGTKVEIK
As for B13, the binding entry was “binds”.

B14: 3131 AM2-O-13 (Fab, V domains shown)
VH: EVQLVESGGGLVQPGGSLRLSCAASGFDLYYSSMHWVRQAPGKGLEWVASIYSSSGDTHYADSVKGRFTISADTSKNTAYLQMNSLRAEDTAVYYCARSSFSHGYGWYGLDYWGQGTLVTVSS
VL: DIQMTQSPSSLSASVGDRVTITCRASQSVSSAVAWYQQKPGKAPRLLIYGASSLYSGVPSRFSGSRSGTDFTLTISSLQPEDFATYYCQQYGYHYAGLITFGQGTKVEIK
B14: the binding result is “binds”.

B15: 3131 AM2-O-14 (Fab, V domains shown)
VH: EVQLVESGGGLVQPGGSLRLSCAASGFSLYYSSMHWVRQAPGKGLEWVASIYSSSGDTHYADSVKGRFTISADTSKNTAYLQMNSLRAEDTAVYYCARSSFSHGYGWYGLDYWGQGTLVTVSS
VL: DIQMTQSPSSLSASVGDRVTITCRASQSVSSAVAWYQQKPGKAPRLLIYGASSLYSGVPSRFSGSRSGTDFTLTISSLQPEDFATYYCQQYGYHYAGLITFGQGTKVEIK
B15: the binding result is “binds”.

B16: 3131 AM2-O-22 (Fab, V domains shown)
VH: EVQLVESGGGLVQPGGSLRLSCAASGFSLYYSSMHWVRQAPGKGLEWVASIYSSSGDTHYADSVKGRFTISADTSKNTAYLQMNSLRAEDTAVYYCARSSFSHGYGWYGLDYWGQGTLVTVSS
VL: DIQMTQSPSSLSASVGDRVTITCRASQSVSSAVAWYQQKPGKAPRLLIYSASSLYSGVPSRFSGSRSGTDFTLTISSLQPEDFATYYCQQYGYHDAGLITFGQGTKVEIK
For the molecule B16, the binding entry was “binds”.

B17: 3131 AM2-O-08 (Fab, V domains shown)
VH: EVQLVESGGGLVQPGGSLRLSCAASGFTLYYSSMHWVRQAPGKGLEWVASIYSSGGSTSYADSVKGRFTISADTSKNTAYLQMNSLRAEDTAVYYCARSSFSHGYGWYGLDYWGQGTLVTVSS
VL: DIQMTQSPSSLSASVGDRVTITCRASQSVSSAVAWYQQKPGKAPRLLIYGASSLYSGVPSRFSGSRSGTDFTLTISSLQPEDFATYYCQQYGYHYAGLITFGQGTKVEIK
B17: the binding entry was “binds”.

B18: 3131 AM2-O-23 (Fab, V domains shown)
VH: EVQLVESGGGLVQPGGSLRLSCAASGFNLYYSSMHWVRQAPGKGLEWVASIYSSGGSTSYADSVKGRFTISADTSKNTAYLQMNSLRAEDTAVYYCARSSFSHGYGWYGLDYWGQGTLVTVSS
VL: DIQMTQSPSSLSASVGDRVTITCRASQSVSSAVAWYQQKPGKAPRLLIYGASSLYSGVPSRFSGSRSGTDFTLTISSLQPEDFATYYCQQYGYHDAGLITFGQGTKVEIK
Take B18: the binding entry is listed as “binds”.

B19: 3131 AM2-O-20 (Fab, V domains shown)
VH: EVQLVESGGGLVQPGGSLRLSCAASGFTLYYSSMHWVRQAPGKGLEWVASIYSSSGDTHYADSVKGRFTISADTSKNTAYLQMNSLRAEDTAVYYCARSSFSHGYGWYGLDYWGQGTLVTVSS
VL: DIQMTQSPSSLSASVGDRVTITCRASQSVSSAVAWYQQKPGKAPRLLIYSASSLYSGVPSRFSGSRSGTDFTLTISSLQPEDFATYYCQQYGYHDAGLITFGQGTKVEIK
On to B19, for which the binding entry is “binds”.

B20: 3131 AM2-O-19 (Fab, V domains shown)
VH: EVQLVESGGGLVQPGGSLRLSCAASGFNLYYSSMHWVRQAPGKGLEWVASIYSSSGDTHYADSVKGRFTISADTSKNTAYLQMNSLRAEDTAVYYCARSSFSHGYGWYGLDYWGQGTLVTVSS
VL: DIQMTQSPSSLSASVGDRVTITCRASQSVSSAVAWYQQKPGKAPRLLIYSASSLYSGVPSRFSGSRSGTDFTLTISSLQPEDFATYYCQQYGYHDAGLITFGQGTKVEIK
Take B20: the binding result is reported as “binds”.
